## Primary screen of a compound library

Each number is a percent effect as filed.
How 0% and 100% were set is not recorded. Most values in the screen are low, and negative values occur.
This is an unselected part of the compounds tested.
Two or more numbers in one place are separate tests of the same structure; such repeats can differ widely.

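Cell assay of Leishmania donovani living inside macrophages; the read-out is not stated. Concentration: 30 µM. Higher reads as stronger inhibition (inferred: compounds with an IC50 in retests scored well above the rest). Of about 69,000 compounds tested this way, about 1,000 (1.5%) reached 50% or more in at least one test.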

structure: Cc1ccc(N2CCCC3(CCN(C(=O)C4CC4)C3)C2)nn1 (stereo not given)
Percent Effect: 44.99%

structure: O=C(c1cc[nH]n1)N(Cc1ccc(F)cc1)CC1CC1
Percent Effect: 13.69%

structure: CN(c1nccc(-c2cnc3sccn3c2=O)n1)C1CCCCC1
Percent Effect: -1.084% & 19.42%

structure: Cc1cscc1-c1nc(C2CCOC2)no1 (stereo not given)
Percent Effect: 14.2%

structure: [H][C@]12CC[C@]([H])(CC(=O)N(C)C1)N2C(=O)c1ccc(-c2ccccc2)[nH]c1=O
Percent Effect: 11.27%

structure: CC(C1CCN(Cc2ccccc2OC(F)F)CC1)N1CCOCC1 (stereo not given)
Percent Effect: 38.92%

structure: CC(=O)N1CCC(C)(c2cc[nH]n2)CC1
Percent Effect: 10.42%

structure: Cc1cc(O)cc(C2CCCN2C(=O)c2ccncc2)n1 (stereo not given)
Percent Effect: 15.28%

structure: Cc1ncsc1CCCn1ccnc1-c1cc2n(n1)CCCNC2
Percent Effect: 20.89%

structure: c1cc(CN2CCC(c3ccnc4nccn34)C2)ccn1 (stereo not given)
Percent Effect: 0.616%

structure: O=C(O)C(F)(F)F.O=C(O)C(F)(F)F.O=C(O)C(F)(F)F.c1ccc(N2CC3(CCN(Cc4cccnc4)C3)C2)nc1
Percent Effect: 4.534%

structure: Cn1ccnc1CN1CCC2(CC1)COCCN(c1ncccn1)C2
Percent Effect: 59.31%

structure: CC1COC2(CCN(C(=O)Cc3ccncc3)CC2)C1.O=C(O)C(F)(F)F (stereo not given)
Percent Effect: 9.251%

structure: Cc1csc(N2CCCN(c3cc(C)nc(C)c3C#N)CC2)n1
Percent Effect: 31.31%

structure: COc1ccc(N2Cc3nc(=O)n(Cc4cccc(F)c4)n3C2=O)cc1
Percent Effect: 11.01%

structure: CC(C)CCC(=O)N1CCC(c2nnc(CN(C)CCO)n2C)CC1
Percent Effect: 24.6%

structure: Fc1ccc2nc([C@H]3CCNC3)[nH]c2c1
Percent Effect: 28.21%

structure: CC(C)CC(=O)N1CC(=O)N(Cc2ccco2)CC(O)C1 (stereo not given)
Percent Effect: -17.6%

structure: Cc1ccc(CN2CCOCC2)cc1NCc1ccsc1
Percent Effect: 21.68%

structure: CCCn1nc2c(cc1=O)CN(CCCS(N)(=O)=O)CC2
Percent Effect: -11.28%

structure: COc1ccc(-c2n[nH]cc2CN(C)Cc2nnc(C)o2)c(F)c1
Percent Effect: 10.34%

structure: Cc1cnn(CC2CCCN2CCCc2nc3ccccc3o2)c1 (stereo not given)
Percent Effect: 42.53%

structure: CN(c1nc(Cn2cnccc2=O)cs1)C1CC1
Percent Effect: 4.021%

structure: Cc1ccc(CN2CCc3[nH]nc(C(=O)N4CCN(C)CC4)c3C2)o1.O=C(O)C(F)(F)F.O=C(O)C(F)(F)F.O=C(O)C(F)(F)F
Percent Effect: 19.09%

structure: N#Cc1c(F)cccc1NCCCOCC1CCOC1 (stereo not given)
Percent Effect: 6.378%

structure: CN1CCN(Cc2ccncc2)C(=O)C12CCN(Cc1ccsc1)CC2.O=C(O)C(F)(F)F.O=C(O)C(F)(F)F.O=C(O)C(F)(F)F
Percent Effect: 8.368%

structure: CCNc1nc(C)c(C(=O)N2CCC(C(O)Cc3ccccc3)CC2)s1 (stereo not given)
Percent Effect: 22.38%

structure: CC(C)c1cc(C(=O)N2CCN(c3ncc4c(n3)CCOC4)CC2)on1
Percent Effect: 18.91%

structure: CC(C)CN1CCC2(C=C(C(=O)N3CCCC3)c3ccccc32)CC1.O=C(O)C(F)(F)F
Percent Effect: 5.379%

structure: CCCc1nc(NCCCn2cccn2)c2c(n1)c(C)nn2CC
Percent Effect: 56.39%

structure: COc1cccc2c1ccn2CCNC(C)=O
Percent Effect: 8.237%

The first 3 entries again:

With Cc1ccc(N2CCCC3(CCN(C(=O)C4CC4)C3)C2)nn1 (stereo not given) the screen gave 44.99%.
With O=C(c1cc[nH]n1)N(Cc1ccc(F)cc1)CC1CC1 the screen gave 13.69%.
With CN(c1nccc(-c2cnc3sccn3c2=O)n1)C1CCCCC1 the screen gave -1.084% & 19.42%.

From ChEMBL document CHEMBL3988442, “University of Dundee, Small-Polar-MMV Screening Library” (2021).